PubChem BioAssay AID504774, Drosophila RNAi Screening Center, 2011
Assay: 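Fly genes whose loss alters survival after alkylation damage to DNA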 (primary screen). System: Drosophila Kc167 cells. Reagents: long dsRNA against Drosophila genes, about 0.25 µg dsRNA per well. Timing: about 6 days: 3 days knock-down, then 3 days with or without MMS. Conditions: methyl methanesulphonate 0.004% (w/v) for 3 days after knock-down. Detection: 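ATP-dependent luminescence as a measure of live cells in MMS-exposed wells, quantile normalised within each plate, with replicate values also given as a mean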. Direction: mean viability with MMS and viability with MMS: higher = more surviving cells after MMS.
The screen tested about 23,000 reagents; shown is an unselected part of those with a known target gene and a result. 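Values are quantile-normalised luminescence on an arbitrary scale; higher means more cells surviving MMS.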 Names joined by + are all predicted targets of the reagent. No sequences are given here.

gene knocked down,amplicon,mean viability with MMS,"viability with MMS, replicate 1","viability with MMS, replicate 2"
CG15333,DRSC18016,3.52e6,3.93e6,4.06e6
CG15333,DRSC18153,3.60e6,3.93e6,4.23e6
CR14033,DRSC02358,3.73e6,4.31e6,4.20e6
CG34049,DRSC00104,3.47e6,4.16e6,3.74e6
mahj,DRSC04053,3.35e6,3.55e6,3.80e6
CG5641,DRSC15852,3.42e6,3.85e6,3.86e6
asf1,DRSC11324,3.43e6,3.92e6,3.82e6
CG4669,DRSC10440,3.49e6,3.93e6,3.97e6
FASN3,DRSC20882,3.50e6,3.98e6,3.98e6
CG9062,DRSC07327,3.61e6,4.35e6,3.92e6
Spc25,DRSC14164,3.33e6,3.64e6,3.89e6
CG2854,DRSC18595,3.43e6,3.83e6,3.95e6
CG8414,DRSC07168,3.45e6,3.83e6,3.97e6
Or98b,DRSC16775,3.61e6,3.98e6,4.21e6
Or98b,DRSC21751,3.41e6,3.85e6,3.93e6
bur,DRSC03163,3.78e6,4.53e6,4.17e6
Pyroxd1,DRSC02098,3.55e6,3.98e6,4.06e6
Prosbeta2,DRSC11257,3.25e6,3.70e6,3.65e6
eIF3d1,DRSC16938,3.05e6,3.64e6,3.61e6
Dyb,DRSC07208,3.62e6,4.08e6,4.15e6
Dyb,DRSC22862,3.28e6,3.91e6,3.73e6
stv,DRSC09796,3.44e6,3.82e6,3.94e6
stv,DRSC10111,3.44e6,3.80e6,3.99e6
CG13917,DRSC08386,3.77e6,4.24e6,4.27e6
escl,DRSC02828,3.94e6,4.33e6,4.67e6
Obp56f,DRSC22270,3.49e6,3.96e6,3.97e6
Damm,DRSC07393,3.58e6,4.10e6,4.07e6
Hers + amn,DRSC20306,3.64e6,4.20e6,3.99e6
CG18294,DRSC09891,3.66e6,4.09e6,4.16e6
Sirt7,DRSC14294,3.42e6,3.97e6,3.81e6
CG16721,DRSC18113,3.33e6,4.08e6,4.32e6
CG15233,DRSC04967,3.56e6,4.10e6,4.08e6
ND-51,DRSC03145,3.45e6,3.86e6,3.89e6
CG5762,DRSC15869,3.53e6,4.01e6,3.99e6
RanBPM,DRSC06079,3.43e6,3.89e6,3.86e6
CG8388,DRSC07157,3.50e6,3.92e6,4.01e6
CG3902,DRSC10387,3.35e6,3.74e6,3.81e6
mael,DRSC11894,3.64e6,4.09e6,4.14e6
CG6287,DRSC02947,3.57e6,4.15e6,3.97e6
CG8138,DRSC16386,3.51e6,3.86e6,4.10e6
Jon25Bi,DRSC03434,3.49e6,3.99e6,3.92e6

Reprinted from the listing (10 entries):
gene knocked down,amplicon,mean viability with MMS,"viability with MMS, replicate 1","viability with MMS, replicate 2"
Obp56f,DRSC22270,3.49e6,3.96e6,3.97e6
Damm,DRSC07393,3.58e6,4.10e6,4.07e6
Hers + amn,DRSC20306,3.64e6,4.20e6,3.99e6
CG18294,DRSC09891,3.66e6,4.09e6,4.16e6
Sirt7,DRSC14294,3.42e6,3.97e6,3.81e6
CG16721,DRSC18113,3.33e6,4.08e6,4.32e6
CG15233,DRSC04967,3.56e6,4.10e6,4.08e6
ND-51,DRSC03145,3.45e6,3.86e6,3.89e6
CG5762,DRSC15869,3.53e6,4.01e6,3.99e6
RanBPM,DRSC06079,3.43e6,3.89e6,3.86e6

The results go on.
gene knocked down,amplicon,mean viability with MMS,"viability with MMS, replicate 1","viability with MMS, replicate 2"
CG34263,DRSC07866,3.66e6,4.21e6,4.07e6
CG32832,DRSC01562,3.54e6,3.96e6,4.07e6
CG16998,DRSC10235,3.69e6,4.12e6,4.24e6
spdo,DRSC13988,3.39e6,3.90e6,3.81e6
CG30431,DRSC04902,3.53e6,4.07e6,4.01e6
CG30431,DRSC04904,3.54e6,4.11e6,3.94e6
bnl,DRSC13377,3.65e6,4.14e6,4.10e6
bnl,DRSC16913,3.04e6,3.63e6,3.67e6
bnl,DRSC23212,3.64e6,4.18e6,4.09e6
CG32638,DRSC18968,3.50e6,3.93e6,4.02e6
CG40378 (retired record),DRSC20958,2.34e6,4.07e6,3.96e6
CG40378 (retired record),DRSC22174,3.58e6,4.01e6,4.08e6
CG42553,DRSC08356,3.53e6,4.02e6,3.98e6
Trap1,DRSC05019,3.48e6,3.93e6,4.08e6
uex,DRSC20784,2.38e6,4.00e6,4.01e6
uex,DRSC20786,2.33e6,3.97e6,3.81e6
ymp,DRSC13720,3.50e6,3.96e6,3.99e6
ymp,DRSC14482,3.63e6,4.10e6,4.13e6
Dnz1,DRSC03317,3.50e6,4.09e6,3.83e6
CG13362,DRSC17897,3.47e6,4.01e6,3.86e6
CG13380 + CG4174,DRSC09988,3.55e6,4.08e6,3.95e6
CG13380 + CG4174,DRSC10406,3.53e6,4.06e6,3.95e6
Orc5,DRSC03390,3.54e6,4.07e6,3.96e6
Obp44a,DRSC06838,3.63e6,4.06e6,4.10e6
Rtca,DRSC18517,3.57e6,4.12e6,3.97e6
Utx,DRSC02872,3.65e6,4.62e6,3.65e6
mthl12,DRSC12964,3.51e6,4.00e6,3.96e6
CG18746,DRSC15383,3.71e6,4.06e6,4.30e6
sca,DRSC07677,3.49e6,3.93e6,3.95e6
pr,DRSC03596,3.74e6,4.00e6,4.53e6
CG10086,DRSC14183,3.53e6,4.01e6,4.00e6
CG16789,DRSC15155,3.67e6,4.15e6,4.07e6
cav,DRSC15995,3.62e6,4.10e6,4.07e6
luna,DRSC05253,3.56e6,3.95e6,4.10e6
luna,DRSC06663,2.74e6,3.56e6,3.58e6
luna,DRSC07336,3.30e6,4.16e6,4.15e6
CG14834,DRSC10204,3.54e6,3.97e6,4.05e6
Pif1,DRSC00582,3.73e6,4.26e6,4.23e6
Arl4,DRSC17156,3.58e6,4.08e6,4.05e6
mus301,DRSC10939,3.34e6,3.89e6,3.61e6
Sgs8,DRSC11282,3.47e6,3.89e6,3.97e6
Hex-t1,DRSC16701,3.26e6,3.69e6,3.69e6
Zdhhc8,DRSC18044,3.37e6,3.81e6,3.86e6
Zdhhc8,DRSC18122,3.74e6,4.26e6,4.17e6
CG30447,DRSC05820,3.55e6,4.09e6,3.95e6
smid,DRSC11398,3.72e6,4.14e6,4.27e6
